# Laboratory results from patent US20160271072A1, “POLYMER NANOPARTICLES CONTAINING MULTIPLE AGENTS AND METHODS THEREOF” (THE UNIVERSITY OF NORTH CAROLINA AT CHAPEL HILL, priority 2013, published 2016).
# For at least one compound, name, drawing or mass did not settle the structure.
# Assay: Drug loading and encapsulation efficiency of cores and PLGA NPs
# Format: physicochemical
# Procedure: The loading and encapsulation efficiency of Rapamycin was measured using High-performance Liquid Chromatography (HPLC, Waters, λ=277 nm); the loading and encapsulation efficiency of CDDP was measured using Inductively Coupled Plasma-Mass Spectroscopy (ICP-MS, NexION™ 300, Perkin Elmer Inc); the loading efficiency of GMP was measured both by Ultraviolet-visible spectrometer (UV, DU®800, Beckman Coulter) and ^3H labeled CMP incorporation using a Liquid Scintillation Analyzer (TRI-CARB 2900 TR, Packard Bioscience Co). The size distribution of particle was determined using a Malvern ZetaSizer Nano series (Westborough, Mass.). TEM images of NPs were acquired using a JEOL 100CX II TEM (JEOL, Japan). The NPs were negatively stained with 2% uranyl acetate. Approximately 100 NPs were analyzed for calculating the average number of CDDP cores per PLGA NP.
# DL and EE of cisplatin were measured using Inductively Coupled Plasma-Mass Spectroscopy (ICP-MS, NexION™ 300, Perkin Elmer Inc); LE and EE of GMP were both measured by Ultraviolet-Visible Spectroscopy (UV, DU®800, Beckman Coulter) and ^3H labeled cytidine 5′ monophosphate (CMP) [5-^3H] disodium salt (Moravek Bio Inc, 1 mCi/mL) incorporation using a Liquid Scintillation Analyzer (TRI-CARB 2900 TR, Packard Bioscience Co). The size distribution of particles was determined using a Malvern ZetaSizer Nano series (Westborough, Mass.). TEM images of NP were obtained using a JEOL 100CX II TEM (JEOL, Japan). For NP imaging, the NP were negatively stained with 2% uranyl acetate. The composition of PLGA combo NP was studied using Electron Dispersive Spectroscopy (EDS) (Oxford instruments, INCA PentaFET-×3) and X-ray photoelectron spectroscopy (XPS) (Kratos Axis Ultra DLD X-ray Photoelectron Spectrometer).
# [1] = feed ratio RAPA to PLGA 5 wt %, without DOPA-CDDP cores
# [2] = in presence of 4.5 wt % DOPA-CDDP core
compound,measurement,setting,value
"CO[C@H]1C[C@@H]2CC[C@@H](C)[C@@](O)(O2)C(=O)C(=O)N2CCCC[C@H]2C(=O)O[C@H]([C@H](C)C[C@@H]2CC[C@@H](O)[C@H](OC)C2)CC(=O)[C@H](C)/C=C(\C)[C@@H](O)[C@@H](OC)C(=O)[C@H](C)C[C@H](C)/C=C/C=C/C=C/1C [RAPA, rapamycin]",drug loading of RAPA,[1],1.15 wt %
same,encapsulation efficiency of RAPA,[1],23%
same,EE of RAPA,[2],80%
same,LE of RAPA,[2],4 wt %
